From US20130310442 come the findings set out here.

Amino acid sequences for entries named in this document (tags omitted). A change or cut given only in a name is not applied to a line headed by its entry.
UniProt P48061: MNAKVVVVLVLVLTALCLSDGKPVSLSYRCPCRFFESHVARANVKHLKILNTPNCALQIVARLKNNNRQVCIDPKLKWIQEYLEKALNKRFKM

This data set concerns the target human SDF-1alpha (CXCL12) (Homo sapiens) (UniProt P48061). Nature of the data set: activity in cells. Particulars: L-RNA, 5'-40 kDa PEG, purified recombinant protein, mirror-image nucleic acid; for IC50: variant of 193-G2-001 Spiegelmer.

For at least one entry, the source does not settle the construct or the ends of the probe. Negatives hold for the conditions tested.

For “GCGUGGUGUGAUCUAGAUGUAUUGGCUGAUCCUAGUCAGGUACGC [NOX-A12 (193-G2-012-5'-PEG)]”, the half-maximal inhibitory concentration (IC50) (CXCR7 beta-arrestin complementation in CHO, 10 nM SDF-1) worked out at 5.4 nM and the IC50 (Jurkat chemotaxis, 0.3 nM SDF-1) was 0.2 nM.

For the sequence “CGCAUGGACUGAUCCUAGUCGGUUAUGUAGAUCUAGUGUGGUGCG [revNOX-A12]”, where the note is “did not reverse SDF-1-modulated Jurkat adhesion, variant of NOX-A12 (193-G2-012-5'-PEG), dose not given here”, the “functional effect of the aptamer” value is on record as “not active”.

The term IC50 denotes the concentration needed to halve the response being measured.
